The experiment deals with SARS-CoV-2 ORF9b containing a Strep-II tag (SARS-CoV-2) (UniProt P0DTD2). Nature of the experiment: co-IP.

The chains behind the UniProt entries cited, without tags or fusion partners.
UniProt P0DTD2: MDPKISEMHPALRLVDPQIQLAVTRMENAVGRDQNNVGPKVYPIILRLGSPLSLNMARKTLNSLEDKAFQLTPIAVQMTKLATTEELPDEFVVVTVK
UniProt Q07820: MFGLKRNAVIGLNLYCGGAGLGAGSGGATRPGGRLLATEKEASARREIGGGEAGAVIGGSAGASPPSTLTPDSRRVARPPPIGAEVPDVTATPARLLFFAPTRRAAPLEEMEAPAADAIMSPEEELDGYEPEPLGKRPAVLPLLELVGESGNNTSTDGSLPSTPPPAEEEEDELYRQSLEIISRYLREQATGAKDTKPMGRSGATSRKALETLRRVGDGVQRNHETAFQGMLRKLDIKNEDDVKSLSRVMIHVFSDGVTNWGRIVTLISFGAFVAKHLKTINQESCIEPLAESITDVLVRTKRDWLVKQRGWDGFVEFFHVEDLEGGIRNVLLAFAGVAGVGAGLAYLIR

The source of these data is paper PMC9561960.

Results are given in words; binding and its absence hold for the method and conditions named. Binding seen in cells or lysates may run through a third protein. Some entries that bind do so weakly or less than the wild type.

On to “myeloid cell leukemia-1 (MCL1) (from UniProt Q07820 1-350)”, for which the binding result was “binds”.
